Source: US5529984A (Bayer Aktiengesellschaft, priority 1993, dated 1996)

Experiment: general procedure: solution-phase peptide synthesis; BOP-Cl / N,N-diisopropylethylamine
Conditions: of theory

| Substance | step yield (late stage modification step) | step yield (coupling step) |
| --- | --- | --- |
| Bn-(L-MeIle-D-Lac)2-OH | 100% of theory |  |
| H-(L-MeIle-D-Lac)3-OH | 100% of theory |  |
| H-(L-MeLeu-D-PheLac)2-L-MeLeu-D-Lac-OtBu | 97% of theory |  |
| Z-(L-MeIle-D-Lac)3-OtBu |  | 77.4% of theory |
| H-(L-MeLeu-D-Lac)2-OtBu | 100% of theory |  |
| Z-(L-MeIle-D-Lac)3-OH | 82.9% of theory |  |
| Bn-(L-MeLeu-D-Lac)2-OtBu |  | 96.0% of theory |
| Bn-(L-MeIle-D-Lac)2-L-MePhe-D-Lac-OtBu |  | 44.6% of theory |
